Data published in paper PMC10338684.
No constants are given. Whether binding was seen depends on the method and setting. For some assays here: Binding seen in cells or lysates may run through a third protein. Some results given as binding are weak or reduced against the parent protein; the word gives no strength. Sequences can lack the tags named with a protein.

B1: PIAL2, yeast two-hybrid fusion (protein, UniProt F4JYG0 1-760)
chain: MSTAAAARPVAGTGLREKTAASLVNSFRLASVTQRLRYHIQDGAKVDPKEFQICCISFAKGIDFAIANNDIPKKVEEFPWLLKQLCRHGTDVYTKTALMVLMISVKHACHLGWFSDSESQELIALADEIRTCFGSSGSTSPGIKSPGSTFSQIMERFYPFVKLGHVLVSFEVKAGYTMLAHDFYISKNMPHSLQEKIRLFVAQTDNIDTSACISNPPEVSFLLNGKGVEKRVNIAMDTGPQLPTNVTAQLKYGTNLLQVMGNFKGNYIIIIAFTGLVVPPEKPVLKDYLQSGVIEASPDSDIIEGPSRVSLSCPISRKRIKLPVKGQLCKHLQCFDFSNYVHINMRNPTWRCPHCNQPVCYPDIRLDQNMAKILKDVEHNAADVIIDAGGTWKVTKNTGETPEPVREIIHDLEDPMSLLNSGPVVFDLTGDDDAELEVFGDNKVEDRKPCMSDAQGQSNNNNTNKHPSNDDYSSIFDISDVIALDPEILSALGNTAPQPHQASNTGTGQQYSNLSQIPMSIDPMPVPVPFSQTPSPRDRPATTSTVFTIPNPSPQYSQVHASPVTPTGTYLGRTTSPRWNQTYQSQAPPMTTPYTSRKVSVPVTSQSPANVSSFVQSQHVPRVLSQPNNYGVRGLTSSHASTSRQHPSGPTVQSVSRLSDLVDVDLTVPDTSNWRPRMRGSLVPGSHSTALDHMIIRPSQQSQTSTRLNSSQPVQTPSVQTSQAQSPFTTAAYRTETVLGNRNHPVPAPPGIVRPTGPTS
B2: PIAL1, yeast two-hybrid fusion (protein, UniProt A0A0A7EPL0 1-847)
chain: MVIPATSRFGFRAEFNTKEFQASCISLANEIDAAIGRNEVPGNIQELALILNNVCRRKCDDYQTRAVVMALMISVKSACQLGWFPERETQELLAIIDLMWNGFSCPENVTSCVNSPVTLISQVIERFYPCVKLGHILVSFEAKPESKMMMKDFHISKKMPHSPKQKVGLFVVRTEDISRSNCIVHPQGVSFLLNGKGIDKRVNISMESGPQLPTNVTALLNLGANLLQAIGCFGGSYLIAIAFMDVIPLPNKPLLKDYVHPEVVGSNSDCDIIEGPSRISLSCPISRTRIKLPVKGHVCKHLQCFDFWNYVNMNTRRPSWRCPHCNQSVCYTDIRVDQKLRKILEEVGRNAADVVISADGTWMVETENDEDVELVPETTHDHGDPNSFINLGPTVKNPARDENEMETSTQVEEHNPCLSEIQGPSNDTHRPASDYTMLNQSHTSTNTLPQLPRTLNAFDGQQFVNLPQVINTRDSPASQALPMTFSPTPSPQDILATNAANFGTSMPAAQSSQFQGSHVTSLGNCEGRTSDLMARWNHIYGRVQTQFPPAPLSHHHYSMQNQSPSPAQQRPVPSYIAHPQTFHVNYGENADQRWMPSSIAHPQTLPVNYGGNTNQRPIPSSIAHPQTLPVNYRGNTDHRSTPYSITHLQTLLNYGGNADQRPMPSSITNLQTLPATYGGYAHQRPMSSSITHPRTSPVNYGGTPDQRPMPSSITHPQTLPVSYGGTTDQILNPGGAMGQFSSREFMNLTPANTENWRPQSRMRGSVAPGTGYDHMIIHPTRPVHPQAQTPPAPLSTSYDGADEIQAFIGHPSYPVSNNETQAGTSSLPVAEGLGYSGSFWSMPPETW
B3: PIAL2-Myc (protein, UniProt F4JYG0 1-760)
chain: MSTAAAARPVAGTGLREKTAASLVNSFRLASVTQRLRYHIQDGAKVDPKEFQICCISFAKGIDFAIANNDIPKKVEEFPWLLKQLCRHGTDVYTKTALMVLMISVKHACHLGWFSDSESQELIALADEIRTCFGSSGSTSPGIKSPGSTFSQIMERFYPFVKLGHVLVSFEVKAGYTMLAHDFYISKNMPHSLQEKIRLFVAQTDNIDTSACISNPPEVSFLLNGKGVEKRVNIAMDTGPQLPTNVTAQLKYGTNLLQVMGNFKGNYIIIIAFTGLVVPPEKPVLKDYLQSGVIEASPDSDIIEGPSRVSLSCPISRKRIKLPVKGQLCKHLQCFDFSNYVHINMRNPTWRCPHCNQPVCYPDIRLDQNMAKILKDVEHNAADVIIDAGGTWKVTKNTGETPEPVREIIHDLEDPMSLLNSGPVVFDLTGDDDAELEVFGDNKVEDRKPCMSDAQGQSNNNNTNKHPSNDDYSSIFDISDVIALDPEILSALGNTAPQPHQASNTGTGQQYSNLSQIPMSIDPMPVPVPFSQTPSPRDRPATTSTVFTIPNPSPQYSQVHASPVTPTGTYLGRTTSPRWNQTYQSQAPPMTTPYTSRKVSVPVTSQSPANVSSFVQSQHVPRVLSQPNNYGVRGLTSSHASTSRQHPSGPTVQSVSRLSDLVDVDLTVPDTSNWRPRMRGSLVPGSHSTALDHMIIRPSQQSQTSTRLNSSQPVQTPSVQTSQAQSPFTTAAYRTETVLGNRNHPVPAPPGIVRPTGPTS

Key:
[1] = biological target: T1, MORC6, yeast two-hybrid fusion (Arabidopsis thaliana) (UniProt Q56Y74); experiment: two-hybrid; Gal4-BD (pGBKT7-GW) and Gal4-AD (pGADT7-GW) fusions co-transformed into yeast AH109; growth on SD-TLH with 5 mM 3AT after 2-3 days
T1 sequence: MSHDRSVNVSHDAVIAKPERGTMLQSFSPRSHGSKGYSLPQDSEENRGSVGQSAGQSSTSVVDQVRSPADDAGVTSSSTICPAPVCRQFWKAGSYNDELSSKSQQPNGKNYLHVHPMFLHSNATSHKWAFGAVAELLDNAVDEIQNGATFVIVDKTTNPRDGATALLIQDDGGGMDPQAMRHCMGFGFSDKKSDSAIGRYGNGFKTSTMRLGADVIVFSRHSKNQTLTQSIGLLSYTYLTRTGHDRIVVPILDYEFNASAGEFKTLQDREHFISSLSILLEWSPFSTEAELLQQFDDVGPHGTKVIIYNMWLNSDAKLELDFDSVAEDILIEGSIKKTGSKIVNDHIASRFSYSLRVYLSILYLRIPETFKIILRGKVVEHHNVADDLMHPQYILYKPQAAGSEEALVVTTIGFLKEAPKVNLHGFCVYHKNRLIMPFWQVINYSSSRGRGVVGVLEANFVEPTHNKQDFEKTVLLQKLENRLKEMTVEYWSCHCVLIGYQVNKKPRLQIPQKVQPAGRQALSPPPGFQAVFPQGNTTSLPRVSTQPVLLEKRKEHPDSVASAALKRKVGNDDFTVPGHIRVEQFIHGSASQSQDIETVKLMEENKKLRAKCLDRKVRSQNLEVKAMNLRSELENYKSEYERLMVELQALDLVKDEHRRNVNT

[2] = biological target: T2, MOM1 CMM2 domain (aa1660-aa1860), yeast two-hybrid fusion (Arabidopsis thaliana) (UniProt Q9M658); experiment: as above
T2 sequence: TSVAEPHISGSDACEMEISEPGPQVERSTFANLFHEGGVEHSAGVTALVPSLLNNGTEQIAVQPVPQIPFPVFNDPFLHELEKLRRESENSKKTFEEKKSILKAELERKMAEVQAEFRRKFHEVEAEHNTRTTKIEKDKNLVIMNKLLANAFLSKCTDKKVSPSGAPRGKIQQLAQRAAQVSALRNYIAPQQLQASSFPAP

[3] = biological target: T3, MORC6-FLAG (Arabidopsis thaliana) (UniProt Q56Y74); experiment: co-IP; 2-week-old seedlings of MORC6-FLAG X PIAL2-Myc F1, PIAL2-Myc plants as control; anti-FLAG M2 affinity gel, 4 °C, 2 h; eluted with 3xFLAG peptide; western blot with anti-Myc and anti-FLAG
T3 sequence: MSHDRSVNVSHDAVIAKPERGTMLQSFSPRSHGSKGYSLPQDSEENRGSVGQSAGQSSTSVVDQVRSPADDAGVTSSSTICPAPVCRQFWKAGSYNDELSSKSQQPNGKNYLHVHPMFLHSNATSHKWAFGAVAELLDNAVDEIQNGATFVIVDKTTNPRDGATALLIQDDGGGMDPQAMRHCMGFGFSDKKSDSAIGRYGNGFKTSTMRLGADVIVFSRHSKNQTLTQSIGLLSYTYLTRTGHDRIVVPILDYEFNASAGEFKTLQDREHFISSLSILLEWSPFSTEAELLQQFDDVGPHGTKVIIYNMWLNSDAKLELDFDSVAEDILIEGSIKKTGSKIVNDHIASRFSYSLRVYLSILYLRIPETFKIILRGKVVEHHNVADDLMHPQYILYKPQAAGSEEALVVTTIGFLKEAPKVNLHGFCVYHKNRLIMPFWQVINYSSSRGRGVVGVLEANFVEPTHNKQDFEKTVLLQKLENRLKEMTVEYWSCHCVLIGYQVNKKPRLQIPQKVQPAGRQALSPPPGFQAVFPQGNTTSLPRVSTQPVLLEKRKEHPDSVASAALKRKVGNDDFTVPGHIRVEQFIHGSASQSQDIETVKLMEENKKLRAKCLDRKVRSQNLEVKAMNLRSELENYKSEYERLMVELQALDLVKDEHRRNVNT

| Binder | binding [1] | binding [2] | binding [3] |
| --- | --- | --- | --- |
| B1 | binds | binds | – |
| B2 | binds | binds | – |
| B3 | – | – | binds |
